Experimental data: PubChem BioAssay AID686943 (Drosophila RNAi Screening Center, 2013)
In all, the deposit lists about 23,000 reagents; this is a random part of those that have a named target and a result. 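Extra replicates exist only for a retested subset of genes; insulin dose and duration not given; both raised and lowered dpERK matter.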 The numbers tell different reagents against one gene apart. A plus sign joins genes that one reagent is predicted to hit. Further read-outs or replicates are left out here. Not stated in the record: the amount of reagent, the time to read-out.

- Test: 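Knockdowns that increase or decrease active ERK after insulin receptor stimulation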 (primary screen)
- System: Drosophila S2R+ haemocyte-like cells expressing YFP-tagged ERK (Rolled)
- Reagents: long dsRNA against Drosophila genes
- Conditions: insulin stimulation versus unstimulated cells; dose and duration not given
- Measurement: 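Per-plate z-scores of phospho-ERK immunostaining normalised to YFP-tagged ERK, measured with and without insulin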
- Direction: replicate 1, z-score of dpERK with insulin: higher = more active ERK per ERK-YFP after insulin

{"Gene": "lncRNA:CR42862 (GeneID 10178964)", "dsRNA no.": 1, "replicate 1, z-score of dpERK with insulin": -0.6}
{"Gene": "CG5281 (GeneID 41375)", "dsRNA no.": 1, "replicate 1, z-score of dpERK with insulin": -0.22}
{"Gene": "CG34234 + Dh44-R2", "dsRNA no.": 1, "replicate 1, z-score of dpERK with insulin": 0.34}
{"Gene": "CG11279 (GeneID 39486)", "dsRNA no.": 1, "replicate 1, z-score of dpERK with insulin": 0.17}
{"Gene": "CG14797 + CG32809", "dsRNA no.": 1, "replicate 1, z-score of dpERK with insulin": -0.19}
{"Gene": "CG9294 (GeneID 37491)", "dsRNA no.": 1, "replicate 1, z-score of dpERK with insulin": 2}
{"Gene": "beta4GalNAcTB (GeneID 43425)", "dsRNA no.": 1, "replicate 1, z-score of dpERK with insulin": -0.05}
{"Gene": "CG13510 (GeneID 37596)", "dsRNA no.": 1, "replicate 1, z-score of dpERK with insulin": 0.54}
{"Gene": "CG14265 (GeneID 31297)", "dsRNA no.": 1, "replicate 1, z-score of dpERK with insulin": -0.18}
{"Gene": "Smug (GeneID 42078)", "dsRNA no.": 1, "replicate 1, z-score of dpERK with insulin": 0.6}
{"Gene": "CG1575 (GeneID 31731)", "dsRNA no.": 1, "replicate 1, z-score of dpERK with insulin": 0.22}
{"Gene": "Cow (GeneID 42733)", "dsRNA no.": 1, "replicate 1, z-score of dpERK with insulin": -0.55}
{"Gene": "Cow (GeneID 42733)", "dsRNA no.": 2, "replicate 1, z-score of dpERK with insulin": 0.29}
{"Gene": "Lst8 (GeneID 31903)", "dsRNA no.": 1, "replicate 1, z-score of dpERK with insulin": -0.19}
{"Gene": "Ir7c (GeneID 31692)", "dsRNA no.": 1, "replicate 1, z-score of dpERK with insulin": -0.42}
{"Gene": "Rip11 (GeneID 32850)", "dsRNA no.": 1, "replicate 1, z-score of dpERK with insulin": 0.16}
{"Gene": "CG12715 (GeneID 32252)", "dsRNA no.": 1, "replicate 1, z-score of dpERK with insulin": 0.49}
{"Gene": "Alg13 (GeneID 43443)", "dsRNA no.": 1, "replicate 1, z-score of dpERK with insulin": 0.15}
{"Gene": "CG8419 (GeneID 34118)", "dsRNA no.": 1, "replicate 1, z-score of dpERK with insulin": -1.17}
{"Gene": "Mtch (GeneID 38026)", "dsRNA no.": 1, "replicate 1, z-score of dpERK with insulin": 0.03}
{"Gene": "Fdx1 (GeneID 39070)", "dsRNA no.": 1, "replicate 1, z-score of dpERK with insulin": 0.65}

Laid out differently: entries from further up
{"Gene":"CG5281 (GeneID 41375)","dsRNA no.":1,"replicate 1, z-score of dpERK with insulin":-0.22}
{"Gene":"CG34234 + Dh44-R2","dsRNA no.":1,"replicate 1, z-score of dpERK with insulin":0.34}
